Source: article PMC6072441

By UniProt entry, the sequences of proteins in these tests, tags left out.
UniProt O09106: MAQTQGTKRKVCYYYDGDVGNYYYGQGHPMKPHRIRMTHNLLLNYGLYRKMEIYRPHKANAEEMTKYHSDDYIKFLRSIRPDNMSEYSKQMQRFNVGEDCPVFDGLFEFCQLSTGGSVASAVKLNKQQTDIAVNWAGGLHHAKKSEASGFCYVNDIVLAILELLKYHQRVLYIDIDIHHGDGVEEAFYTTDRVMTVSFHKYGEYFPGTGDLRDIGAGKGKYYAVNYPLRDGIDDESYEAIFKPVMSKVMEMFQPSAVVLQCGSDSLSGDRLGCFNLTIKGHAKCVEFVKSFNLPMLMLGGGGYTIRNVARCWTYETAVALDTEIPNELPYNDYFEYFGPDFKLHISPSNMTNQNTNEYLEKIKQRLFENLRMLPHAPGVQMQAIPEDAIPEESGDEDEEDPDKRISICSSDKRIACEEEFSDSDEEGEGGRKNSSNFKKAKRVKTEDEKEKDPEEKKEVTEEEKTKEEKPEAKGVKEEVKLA

T1: Fam60a-Venus fusion protein (mouse) (UniProt Q8C8M1)
T1 sequence: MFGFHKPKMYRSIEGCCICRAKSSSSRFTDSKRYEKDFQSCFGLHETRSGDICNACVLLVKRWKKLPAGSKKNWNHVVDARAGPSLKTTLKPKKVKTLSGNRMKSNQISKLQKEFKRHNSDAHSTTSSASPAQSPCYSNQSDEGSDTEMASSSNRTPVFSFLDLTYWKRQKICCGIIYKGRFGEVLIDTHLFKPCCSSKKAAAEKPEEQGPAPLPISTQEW


What was measured:
[1] = target: T1, Fam60a-Venus fusion protein (mouse); assay: affinity purification with mass spectrometry; nuclear extracts of E10.5 Fam60a::Venus embryos prepared under three conditions (RIPA buffer, buffer C with 400 mM NaCl, nondenaturing lysis buffer with Benzonase); bead-coupled antibodies to GFP, 3 hr at 4°C; control: beads previously exposed to recombinant GFP; SDS-PAGE, silver staining, LC-MS/MS
[2] = target: T1, Fam60a-Venus fusion protein (mouse); assay: as above; remark: listed apart in the source
[3] = target: T1, Fam60a-Venus fusion protein (mouse); assay: condition: only nuclear extracts prepared with RIPA buffer; affinity purification with mass spectrometry; as a1, but only the nuclear extracts prepared with RIPA buffer (the most stringent of the three conditions)

binding [1] | binding [2] | binding [3] | Molecule
binds | – | – | Hdac1 (from UniProt O09106 1-482) (enzyme)
– | binds | – | Suds3 (protein, UniProt Q8BR65 1-328) MSAAGLLAPAPAPAAAPAAPEYYPEDEEELESAEDDERSCRGRESDEDTEDASETDLAKHDEEDYVEMKEQMYQDKLASLKRQLQQLQEGTLQEYQKRMKKLDQQYRERIRNAELFLQLETEQVERNYIKEKKAAVKEFEDKKVELKENLIAELEEKKKMIENEKLTMELTGDSMEVKPIMTRKLRRRPNDPVPIPDKRRKPAPAQLNYLLTDEQIMEDLRTLNKLKSPKRPASPSSPEHLPATPAESPAQRFEARIEDGKLYYDKRWYHKSQAIYLESKDNQKLSCVISSVGANEIWVRKTSDSTKMRIYVGQLQRGLFVIRRRSAA
– | binds weakly | no binding | Arid4b (protein, UniProt A2CG63 1-1314) MKALDEPPYLTVGTDVSAKYRGAFCEAKIKTAKRLVKVKVTFRHDSSTVEVQDDHIKGPLKVGAIVEVKNLDGAYQEAVINKLTDASWYTVVFDDGDEKTLRRSSLCLKGERHFAESETLDQLPLTNPEHFGTPVIGKKTNRGRRSNHIPEEESSSSSSDDDEEERKQTDELLGKVVCVDYVSLEKKKAMWFPALVVCPDCSDEIAVKKDNILVRSFKDGKFTSVPRKDVHEITSDTVPKPDAVLKQAFDQALEFHKSRAIPANWKTELKEDSSSSEAEEEEEEEDDEKEKEDNSSEEEEEIEPFPEERENFLQQLYKFMEDRGTPINKRPVLGYRNLNLFKLFRLVHKLGGFDNIESGAVWKQVYQDLGIPVLNSAAGYNVKCAYKKYLYGFEEYCRSANIDFQMALPEKVLNKPCKDCENKEVKVKEESETEIKEVNVEDSKNVMPKEETPAEDESERKENIKPSLGSKKSLLECIPAQSDEEKEAHITKLEENENLEDKDGGRARTEEAFSTEVDGEEEQARSGDETNKEEDEDDEEIEEEEEEDEEEDEDEDDDDNNEEEEFECYPPGMKVQVRYGRGKNQKMYEASIKDSDVEGGEALYLVHYCGWNVRYDEWIKADKIVRPADKNVPKIKHRKKIKNKLDKEKDRDEKYSPKNCKLRRLSKSPFQSNPSPEMVSKLDLADAKNSDTAHIKSIEITSILNGLQASESSAEDSEQEDERCTQDVDNIGKDESKVEHSTHSRNELISKEEQSSPSLLEENKVHTDLVIAKTVSKSPERLRKDMEAISEDTDFEEEDEITKKRKDVKKDTTDKALKPQTKRGKRRYCSADECLQTGSPGKKEDRTKSKEPLCTENSSNSSSDEDEEEKSKAKMTPTKKYNGLEEKRKSLRTTSFYSGFSEVAEKRIKLLNNSDERLQNNRAKDRKDVWSSIQGQWPKKTLKELFSDSDTEAAASPPHPAPDEGAVEESLQTVAEEESCSPIMELEKPLPASVDNKPIEEKPLEVSDRKTEFPSSGSNSVLNTPPTTPESPSSVTITEASQQQSSVTVSVPLPPNQEEVRSIKSETDSTIEVDSVVGELQDLQSEGNSSPAGFDASVSSSSSNQPEPDNPEKACTGQKRVKDTQGVGSSSKKQKRSHKATVVNNKKKGKGTNSSDSEELSAGESVTKTQTIKSVPTGMKTHNSKSPARVQSPGKGGRNGDKDPDLKEPSNRLPKVYKWSFQTSDLENMTSAERISILQEKLQEIRKHYLSLKSEVASIDRRRKRLKKKERESAATSSSSSSPSSSSITAAVMLTLAEPSMSSASQNGMSVECR
– | binds | – | Sap130 (protein, UniProt Q8BIH0 1-1057) MSSQQFPRLGTPSPGLSQPPSQIASSGSAGLINQVATVNDEAGRDADVGTREHVGPSSSLPPREEKQEPVVVRPYPQVQMLPAHHAVASATPVAVTAPPAHLTPAVPLSFSEGLMKPPPKPTMPSRPIAPAPPSTMSLPPKVPGQVTVTMESSIPQASAIPVATISGQQGHPSNLHHIMTTNVQMSIIRSNAPGPPLHIGASHLPRGAAAAAVMSSSKVTTVLRPTSQLPNAATAQPAVQHLIHQPIQSRPPVTTSSTIPPAVVATVSATRAQSPVITTTAAHAADSTLSRPTLSIQHPPSAAISIQRPAQSRDVTTRITLPSHPALGTPKQQLHTMAQKTIFSTGTPVAAATVAPILATNTLPSTTTAGSVSHTQAPTSTIVTMTMPSHSSHATAVTTSNIPVAKVVPQQITHTSPRIQPDYPPERSSLIPISGHRASPNPVAMETRNDNRPSVPVQFQYFLPTYPPSAYPLAAHTYTPITSSVSTIRQYPVSAQAPNSTITAQTGVGVASTVHLNPMQLMTVDASHARHIQGIQPAPISTQGIQPAPIGTSGIQPAPIGTPGIHSAAPINTQGLQPAAMANQQPQPEGKTSAVVLADGATIVANPISNPFSAAPAATTVVQTHSQSASTNTPAQGSSPRPSILRKKPATDGMAVRKTLLPPQPPDVATPRVESSMRSASGSPRPAGAKPKSEVHVSIATPVTVSLETISNQNAEQPTVAVPPTAQQPPPTIPSMIAAASPPSQPAIALSTIPGAVPVTPPITTIAATPTLSAPVGGTPSTVLGPPVPEIKVKEEAEPVDITRPVSTVPPLATNTVSPSLALLASNLSMPPSDLPPGASPRKKPRKQQHVISTEEGDMMETNSTDDEKSAAKSLLVKAEKRKSPPKEYIDEEGVRYVPVRPRPPITLLRHYRNPWKAAYHHFQRYSDVRVKEEKKAMLQEIANQKGVSCRAQGWKVHLCAAQLLQLTNLEHDVYERLTNLQEGIIPKKKAATDDDLHRINELIQGNMQRCKLVMDQISEARDSMLKVLDHKDRVLKLLNKNGTVKKVSKLKRKEKV
– | binds | – | Sin3a (protein, UniProt Q60520 1-1274) MKRRLDDQESPVYAAQQRRIPGSTEAFSHQHRVLAPAPPVYEAVSETMQSATGIQYSVAPNYQVSAVPQSSGSHGPAIAAVHSSHHHPTAVQPHGGQVVQSHAHPAPPVAPVQGQQQFQRLKVEDALSYLDQVKLQFGSQPQVYNDFLDIMKEFKSQSIDTPGVISRVSQLFKGHPDLIMGFNTFLPPGYKIEVQTNDMVNVTTPGQVHQIPTHGIQPQPQPPPQHPSQPSSQSAPTPAQPAPQPTAAKVSKPSQLQAHTPASQQTPPLPPYASPRSPPVQPHTPVTISLGTAPSLQNNQPVEFNHAINYVNKIKNRFQGQPDIYKAFLEILHTYQKEQRNAKEAGGNYTPALTEQEVYAQVARLFKNQEDLLSEFGQFLPDANSSVLLSKTTAEKVDSVRNDHGGTVKKPQLNNKPQRPSQNGCQIRRHSGTGATPPVKKKPKLMSLKESSMADASKHGVGTESLFFDKVRKALRSAEAYENFLRCLVIFNQEVISRAELVQLVSPFLGKFPELFNWFKNFLGYKESVHLESFPKERATEGIAMEIDYASCKRLGSSYRALPKSYQQPKCTGRTPLCKEVLNDTWVSFPSWSEDSTFVSSKKTQYEEHIYRCEDERFELDVVLETNLATIRVLEAIQKKLSRLSAEEQAKFRLDNTLGGTSEVIHRKALQRIYADKAADIIDGLRKNPSIAVPIVLKRLKMKEEEWREAQRGFNKVWREQNEKYYLKSLDHQGINFKQNDTKVLRSKSLLNEIESIYDERQEQATEENAGVPVGPHLSLAYEDKQILEDAAALIIHHVKRQTGIQKEDKYKIKQIMHHFIPDLLFAQRGDLSDVEEEEEEEMDVDEATGAPKKHNGVGGSPPKSKLLFSNTAAQKLRGMDEVYNLFYVNNNWYIFMRLHQILCLRLLRICSQAERQIEEENREREWEREVLGIKRDKSDSPAIQLRLKEPMDVDVEDYYPAFLDMVRSLLDGNIDSSQYEDSLREMFTIHAYIAFTMDKLIQSIVRQLQHIVSDEVCVQVTDLYLAENNNGATGGQLNSQTSRSLLESAYQRKAEQLMSDENCFKLMFIQSQGQVQLTVELLDTEEENSDDPVEAERWSDYVERYMSSDTTSPELREHLAQKPVFLPRNLRRIRKCQRGREQQEKEGKEGNSKKTMENVESLDKLECRFKLNSYKMVYVIKSEDYMYRRTALLRAHQSHERVSKRLHQRFQAWVDKWTKEHVPREMAAETSKWLMGEGLEGLVPCTTTCDTETLHFVSINKYRVKYGTVFKAP
– | binds weakly | no binding | Arid4a (protein, UniProt F8VPQ2 1-1261) MKAADEPAYLTVGTDVSAKYRGAFCEAKIKTVKRLVKVKVLLKQDNTTQLVQDDQVKGPLRVGAIVETRTSDGSIQEAIISKLTDASWYTVVFDDGDERTLRRTSLCLKGERHFAESETLDQLPLTNPEHFGTPVIAKKTNRGRRSSLPITEDEKEEESSEEEDEDKRRLNDELLGKVVSVASTAESTGWYPALVVSPSCNDDVTVKKDQCLVRSFIDSKFYSIARKDIKELDILTLPESELCARPGLRRASVFLKGRIVPDNWKMDISEILESSSSDDEECPAEEHEEEKEKEAKKEEEELPEEELDPEERDNFLQQLYKFMEDRGTPINKPPVLGYKDLNLFKLFRLVYHQGGCGNIDSGAVWKQIYMDLGIPILNSAASYNVKTAYRKYLYGFEEYCRSANIQFRTIHHHEPKVKEEKKDFEDSMDEALKEAPEMPLLDVKSEPEENTDSNSESDREDTELKSPRGRRKIVRDANCIKKEIEEEKIEDKFLRDDLENKDAGDDDDDGDPAAKREHELLFGRKSTPKNKEKKIKKPEDSERDSDEEEEKSQEREETESRCDSEGEDEEDDTEPCLTGTKVKVKYGRGKTQKIYEASIKSTEMDDGEILYLVHYYGWNVRYDEWVKADRIIWPLDKGGPKKKQKKKVKNKEDSEKDEKRDEERQKSKRGRPPLKSTFSPNMPYSLSKTSNSEGKSDSCSSDSEADDQLEKSSGGEDLSPDVKEELEKNENAHDDKLDEENPKIVHISKENDRTQAQPSDTLTVEAGDSDQIVHIFGDKVDQVEEFKKQVEKSPKGKGRRSKTKDLSLELIKISPFGQEEAGSEAHGDVHSLEFSSLECKNFSSTEDDIDPYEKEKKLKRKILGQQSPEKKLRLDNGMEMTTGVSQERSDDGAGAEGMKGAHVEQHFETEGEGMPSLTAEPDQGLQELTSEKSDSPAEEEPVHTPLKEEEDAMPLIGPETLVCHEVDLDDLDEKDKTSIEDVVVEGSESNSLASVPPALPPVAQHNFSVASPLTLSQDESRSIKSESDITIEVDSIAEESQEGLCERESANGFEASVASGACSIIAHERESREKGQKRPSDGNSGLIAKKQKRTPKRTSAAAKTEKNGAGQSSDSEDLPAMDSSSNCTPVKRLTLPKSQKLPRSPARTSPHIKDAEKEKHREKHPNSSPRTYKWSFQLNELDNMNSTERISFLQEKLQEIRKYYMSLKSEVATIDRRRKRLKKKDREVSHAGASMSSASSDTGMSPSSSSPPQNVLAVECR

These are yes or no findings as the source states them, for the method shown. In cells and extracts the contact can be indirect. A yes stands for co-enrichment or nearness to the bait. Other partners may have been found. For some assays here: A no says only that the protein was not detected with the bait. Where a sequence is shown, tags or fusion partners need not be part of it.
